# At least one compound was matched to its structure with a doubt left.
# Test system: oxazolone-induced scratching behavior
# Assay: Oxazolone-induced scratching behavior model
# Format: in vivo, NC/Nga female mice
smiles,measurement,setting,value
"CNc1nc(-c2cccc(NC(=O)c3ccc(C(=O)OC)cc3)c2)c2cc(OC)c(OC)cc2n1 [Example 1, methyl N-[3-(6,7-dimethoxy-2-methylaminoquinazolin-4-yl)phenyl]terephthalamic acid]",number of scratching behaviors,"0.3% in acetone:ethanol = 1:1, 10 µL applied 1 hour before the 3rd application of oxazolone, counted during 2 hours after induction, FIG. 14",suppress scratching behavior
same,"cutaneous symptoms (abrasion, bleeding/erosion score difference)","0.3% in acetone:ethanol = 1:1, 10 µL, score 1 day after minus score before administration, FIG. 15",suppresses deterioration in cutaneous symptoms
